Substitutions are numbered along the chain they refer to. Results are given in words; binding and its absence hold for the method and conditions named. Some entries that bind do so weakly or less than the wild type. Each block holds one binder with its values, some of them ahead of it.
Assays:
[1] = biological target: T1, human CD52 (wildtype) (human); assay: flow cytometry, CHO-CD52 cells
T1 sequence (chain, glycosylated (N-linked glycan), GPI-anchored): GQNDTSQTSSPS

[2] = biological target: T1, human CD52 (wildtype) (human); assay: flow cytometry, human PBMC subsets (FIG. 34)
[3] = biological target: T1, human CD52 (wildtype) (human); assay: flow cytometry, FITC-labeled antibody (FIG. 85)
[4] = biological target: T1, human CD52 (wildtype) (human); assay: flow cytometry, splenocytes of huCD52-KI/KO transgenic mice
[5] = biological target: T1, human CD52 (wildtype) (human); assay: flow cytometry, Raji cells, FITC-conjugated antibody at 10 µg/ml
[6] = biological target: T2, WT 2 wildtype human CD52 peptide (human); assay: Biacore T100 SPR, antibody immobilized, peptide injected at up to 500 nM
T2 sequence (peptide, by the resolver, chain 1 pos 1, Gly with N-terminal biotin, written G): GQNDTSQTSSPSAD

[7] = biological target: T1, human CD52 (wildtype) (human); assay: flow cytometry, human CD4+ T cells and huCD52 transgenic mouse CD4+ T cells
[8] = biological target: T1, human CD52 (wildtype) (human); assay: flow cytometry, splenocytes of huCD52 transgenic mice, FITC-conjugated antibody
[9] = biological target: T1, human CD52 (wildtype) (human); assay: multi-color flow cytometry, human PBMC subsets, FITC-conjugated antibody at 10 µg/ml
[10] = biological target: T1, human CD52 (wildtype) (human); assay: flow cytometry on splenocytes of huCD52-KI/KO transgenic mice, detection with a secondary antibody (FL2-H)
[11] = biological target: T1, human CD52 (wildtype) (human); assay: multi-colour flow cytometry, human PBMC of a normal donor, FITC-conjugated antibody at 10 ug/ml (Example 30)
[12] = biological target: T1, human CD52 (wildtype) (human); assay: flow cytometry, CHO-CD52 cells, methods of Example 22 (antibody at 10 ug/ml, FITC goat anti-human secondary) (Example 24)
[13] = biological target: T1, human CD52 (wildtype) (human); assay: flow cytometry, CD4+ T cells from human PBMC and from huCD52 transgenic mouse spleen, 8-point 1:3 dilution from 100 ug/mL, FITC goat F(ab)2 anti-human Fc gamma secondary (Example 29)
[14] = biological target: T1, human CD52 (wildtype) (human); assay: flow cytometry, FITC-labelled antibody on spleen lymphocytes of huCD52 transgenic mice (CD4 T cells, CD8 T cells, B cells); the sheet prints K11, while legend paragraph 240 and Example 57 name 2C3-SFD1/K12
[15] = biological target: T1, human CD52 (wildtype) (human); assay: flow cytometry, B104 cells
[16] = biological target: T1, human CD52 (wildtype) (human); assay: flow cytometry, B104 cells (FIG. 18)
[17] = biological target: T1, human CD52 (wildtype) (human); assay: FACS, B104 B cell line (endogenous CD52), FITC goat anti-human secondary, Geo Mean divided by that of secondary only (Example 15)
[18] = biological target: T1, human CD52 (wildtype) (human); assay: flow cytometry, CHO-CD52 cells (FIG. 25)
[19] = biological target: T1, human CD52 (wildtype) (human); assay: flow cytometry, CHO-CD52 cells, antibody at 10 µg/ml
[20] = biological target: T1, human CD52 (wildtype) (human); assay: flow cytometry, CHO-CD52 cells, antibody at 10 ug/ml, FITC goat anti-human secondary (Example 22)
[21] = biological target: T1, human CD52 (wildtype) (human); assay: ten-color flow cytometry, human PBMC lymphocyte subsets
[22] = biological target: T3, affinity purified CD52 from CHO-CD52 cells, mock-treated (glycosylated CD52) (human); assay: western blot of affinity purified CD52 +/- PNGase-F, antibody at 3 µg/ml
T3 sequence (chain, N-linked glycan present; GPI anchor): GQNDTSQTSSPS

[23] = biological target: T1, human CD52 (wildtype) (human); assay: FACS, CHO cells expressing wild type human CD52, PE-conjugated goat anti-human secondary (Example 4)
[24] = biological target: T1, human CD52 (wildtype) (human); assay: ten-colour flow cytometry, human PBMC, Alexa fluor 647-conjugated antibody, gated lymphocyte subsets (Example 7)
[25] = biological target: T1, human CD52 (wildtype) (human); assay: flow cytometry, CHO-CD52 cells (FIG. 27B)

B3: humanized antibody 7F11-SFD2/K2 (antibody, human IgG1, V domains shown)
VH: EVQLVESGGGLVQPGGSLRLSCAASGFTFTDYYMSWVRQAPGKGLEWVGFIRNKANGYTTEYNASVKGRFTISRDDSKNSLYLQMNSLKTEDTAVYYCARYIFFDYWGQGTTVTVSS
VL: DIVMTQTPLSLSVTPGQPASISCRSSQSLVHTNGNSYLHWYLQKPGQSPQLLIYMVSNRFSGVPDRFSGSGSGTDFTLKISRVEAEDVGVYYCSQSTHVPFTFGQGTKLEIK
binding [18]: binds
binding [19]: binds
binding [20]: binds

B4: chimeric 4G7 antibody (antibody, human IgG1, V domains shown)
VH: EVKLEESGGGLVQPGGSMKLSCAVSGFTFSDAWMDWVRQSPEKGLEWVAEIRNKAKNHVKYYAESVKGRFTISRDDSKSSVYLQMNNLRTEDTGIYYCTSLDYWGQGTALTVSS
VL: DIVITQSTLTLSVTIGQPASISCKSSQSLLDSDGKTYLNWLLQRPGQSPKRLMYLVSNLGSGVPDRFTGSGSGTDFTLKVSRVEAEDLGVYYCWQGTHFPWTFGGGTKLEII
binding [21]: binds
binding [22]: binds
binding [23]: binds
binding [24]: binds

B6: chimeric 23E6 antibody (antibody, human IgG1, V domains shown)
VH: EVKLEESGGGLVQPGGSMKLSCVASGFTFNKYWMNWVRQSPDKGLECIAQIRLKSDNYATHYAESVKGRFTISRDDSKSSVYLQMNNLRAEDTGIYYCTPIDYWGQGTTLTVSS
VL: DIVLTQTPRTLSVTIGQPASISCKSSQSLLYSNGKTYLNWLLQRPGQSPKRLIYLVSKLDSGVPDRFAGSGSGTDFTLKISRVEAEDLGIYYCVQGTRFHTFGAGTKLELK
binding [21]: binds
binding [22]: binds
binding [23]: binds
binding [24]: binds

The remaining lines, values ahead:

binding [1]: binds
binding [2]: binds
binding [3]: binds
binding [4]: binds
binding [5]: binds
binding [6]: binds
binding [7]: binds
binding [8]: binds
binding [9]: binds
binding [10]: binds
binding [11]: binds
binding [12]: binds
binding [13]: binds
binding [14]: binds
B1: humanized antibody 2C3-SFD1/K12 (antibody, V domains shown)
VH: EVQLVESGGGLVQPGGSLRLSCAASGFTFNTYWMNWVRQAPGKGLEWVGQIRLKSNNYATHYAESVKGRFTISRDDSKNSLYLQMNSLKTEDTAVYYCTPVDFWGQGTTVTVSS
VL: DIVMTQTPLSLSVTPGQPASISCKSSQSLLYSNGKTYLNWLLQKPGQSPQRLIYLVSKLDSGVPDRFSGSGSGTDFTLKISRVEAEDVGVYYCVQGTHLHTFGQGTRLEIKR

binding [15]: binds
binding [1]: binds
binding [16]: binds
binding [17]: binds
B2: humanized antibody 4B10-H1/K1 (antibody, V domains shown)
VH: B3 VH with T30S, N63S, F103W
VL: DIVMTQTPLSLSVTPGQPASISCRSSQSLVHTNGNTYLHWYLQKPGQSPQLLIYMVSNRFSGVPDRFSGSGSGTDFTLKISRVEAEDVGVYYCSQSAHVPPLTFGQGTRLEIKR

binding [1]: binds
binding [25]: binds
binding [22]: binds
binding [7]: binds
binding [23]: binds
binding [24]: binds
binding [12]: binds
binding [13]: binds
B5: chimeric 2C3 antibody (antibody, human IgG1, V domains shown)
VH: B6 VH with K31T, D42E, C47W, I48V, D56N, S79N, I101V, Y103F
VL: B6 VL with L4I, R9L, A19V, A68T, I90V, R98H, F99L
